Assay results reported in patent publication US20080057136A1, “Disinfecting Composition and Methods of Making and Using Same” (priority 2003, published 2008).

Legend:
C. albicans ATCC 10231 [1] = test: NCCLS broth microdilution MIC and MFC (Example 11); type: cell-based; conditions: Candida albicans, ATCC10231
P. aeruginosa ATCC 15442 = test: NCCLS broth microdilution MIC and MBC (Example 10); type: cell-based, Pseudomonas aeruginosa
[2] = tested on: S. epidermidis ATCC 12228; test: NCCLS broth microdilution MIC and MBC (Example 10); type: cell-based, Staphylococcus epidermidis
[3] = tested on: Candida albicans (ATCC 10231); test: Time-Kill test (Example 9); type: cell-based; conditions: Table 25, second value column
T. rubrum ATCC 28188 [4] = test: NCCLS broth microdilution MIC and MFC (Example 11); type: cell-based; conditions: Trichophyton rubrum, ATCC28188
E. coli ATCC 11229 = test: NCCLS broth microdilution MIC and MBC (Example 10); type: cell-based, Escherichia coli
S. aureus ATCC 25923 = test: NCCLS broth microdilution MIC and MBC (Example 10); type: cell-based, Staphylococcus aureus
S. pyogenes ATCC 19615 = test: NCCLS broth microdilution MIC and MBC (Example 10); type: cell-based, Streptococcus pyogenes
C. albicans ATCC 10231 [5] = test: NCCLS broth microdilution MIC and MFC (Example 10); type: cell-based; conditions: Candida albicans, ATCC10231
T. rubrum ATCC 28188 [6] = test: NCCLS broth microdilution MIC and MFC (Example 10); type: cell-based; conditions: Trichophyton rubrum, ATCC28188
[7] = Example 10, % as g/100 ml or ml/100 ml

In the case of `CCCCCCCCCCCCCCCC[n+]1ccccc1` [CPC, Cetyl Pyridinium Chloride], the MFC (C. albicans ATCC 10231 [1]) was ≤ 7 µg/mL, the MIC (C. albicans ATCC 10231 [1]) was ≤ 7 µg/mL and the “MIC (μg/ml)” value (P. aeruginosa ATCC 15442; Example 10) was “(200) μg/ml”. The “MIC, %” value (P. aeruginosa ATCC 15442; [7]) was 0.02%, the MIC (P. aeruginosa ATCC 15442; Pseudomonas aeruginosa, ATCC15442) was 200 µg/mL and the “MIC (μg/ml)” value ([2]; Example 10) was “(<=7) μg/ml”. For the same compound, the “MIC, %” value [2, 7] was “<=0.0007%”, the MIC ([2]; Staphylococcus epidermidis, ATCC12228) was ≤ 7 µg/mL and the “Kill, 30-Second” value [3] was 100%. The MIC (T. rubrum ATCC 28188 [4]) was ≤ 7 µg/mL, the MIC (E. coli ATCC 11229; Escherichia coli, ATCC11229) was 50 µg/mL and the “MIC (μg/ml)” value (E. coli ATCC 11229; Example 10) was “(50) μg/ml”. For the same compound, the “MIC, %” value (E. coli ATCC 11229; [7]) was 0.005%, the “MIC (μg/ml)” value (S. aureus ATCC 25923; Example 10) was “(<=7) μg/ml” and the “MIC, %” value (S. aureus ATCC 25923; [7]) was “<=0.0007%”. The MIC (S. aureus ATCC 25923; Staphylococcus aureus, ATCC25923) was ≤ 7 µg/mL, the “MIC (μg/ml)” value (S. pyogenes ATCC 19615; Example 10) was “(<=7) μg/ml” and the “MIC, %” value (S. pyogenes ATCC 19615; [7]) was “<=0.0007%”. The MIC (S. pyogenes ATCC 19615; Streptococcus pyogenes, ATCC19615) was ≤ 7 µg/mL, the MIC (C. albicans ATCC 10231 [5]) was ≤ 7 µg/mL and the MIC (T. rubrum ATCC 28188 [6]) was ≤ 7 µg/mL.
